## Results of single-concentration screens

Measurements from “University of Dundee, Small-Polar-MMV Screening Library” (2021), ChEMBL document CHEMBL3988442.

The filed quantity is “Percent Effect” (%). The record does not define 0% and 100%; most values in the screen are far below 50% and negative numbers occur (in some assays of this library far below -100). Compounds were drawn at random from those tested, without regard to their results. Two or more numbers in one place are separate tests of the same structure; such repeats can differ widely.

A: 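Whole-cell growth test on Mycobacterium tuberculosis, read after 4 days in a medium based on cholesterol and the lipid DPPC; the read-out is not stated. Compounds at 50 µM. Direction is inferred from retests: higher values go with more growth inhibition. Size under these conditions: about 69,000 compounds, about 370 of them at 50% or above in at least one test.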
B: 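Phenotypic screen: M. tuberculosis growth, glucose 7H9 medium, 3 days; the read-out is not stated. Compounds at 50 µM. Direction is inferred from retests: higher values go with more growth inhibition. Size under these conditions: about 69,000 compounds, about 760 of them at 50% or above in at least one test.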

{"structure": "CC(=O)NCCNC(=O)CN1CCCC1c1c(C)nn(C)c1C", "stereo": "stereo unspecified", "A": -19.07, "B": 6.526}
{"structure": "CC(=O)N1CCC(N2CCC(c3nc(C)cc(C)n3)C2)CC1.O=CO", "stereo": "stereo unspecified", "A": 3.763, "B": 4.414}
{"structure": "CN(CCC(F)(F)F)Cc1nc2ccccc2c(=O)[nH]1", "A": -20.5, "B": "-1.594 and -29.49"}
{"structure": "NC(=O)C1CN(C(=O)Nc2ccccc2SC(F)(F)F)CCO1", "stereo": "stereo unspecified", "A": -0.3376, "B": 22.38}
{"structure": "CN1CCN(c2ccc(CO)cc2F)CC1", "A": -6.839, "B": 11.14}
{"structure": "Cc1noc(C(C)Nc2ccc3oc(=O)[nH]c3c2)n1", "stereo": "stereo unspecified", "A": -16.35, "B": 1.292}
{"structure": "CC(C)=CCC/C(C)=C\\CNCc1ccco1", "A": 40.73, "B": 13.88}
{"structure": "CCn1c(CC2CCN(C(=O)c3ccnn3C)CC2)n[nH]c1=O", "A": -9.474, "B": -3.518}
{"structure": "OC1CCN(C2CCN(Cc3cccc(Cn4cccn4)c3)CC2)CC1", "A": "-13.05 and -3.194", "B": -15.53}
{"structure": "CCC(CC)(CNC(=O)OC(C)(C)C)NC(=O)c1cnccn1", "A": -1.266, "B": 8.34}
{"structure": "O=C(NCc1ccc(-n2cncn2)nc1)c1cc[nH]n1", "A": 5.68, "B": -20.34}
{"structure": "O=C(O)C(F)(F)F.[H][C@]12CCN(C(=O)Cc3cccc(F)c3)C[C@@]1([H])OCCN(CCOC)C2", "A": 18.77, "B": "-0.9617 and 14.24"}
{"structure": "COc1ccc(OCCc2nnc(NC(C)=O)s2)cc1", "A": -4.762, "B": 26.36}
{"structure": "COCc1nc(C(=O)N2CCCC2c2cccc(C)c2)cs1", "stereo": "stereo unspecified", "A": -23.24, "B": -9.325}
{"structure": "COCCN(Cc1ccco1)Cc1nc(-c2ccc(C)c(F)c2)no1", "A": 3.742, "B": "1.31 and 12.39"}
{"structure": "Cc1cc(C(C)NC(=O)N2CCC(n3cncn3)CC2)c(C)s1", "stereo": "stereo unspecified", "A": 9.699, "B": 3.287}
{"structure": "CN(C)C1CCC2(CCN(Cc3cccnc3)CC2)c2ccccc21.O=C(O)C(F)(F)F.O=C(O)C(F)(F)F.O=C(O)C(F)(F)F", "stereo": "stereo unspecified", "A": 0.9662, "B": -7.833}
{"structure": "Cc1n[nH]c(C)c1CCNC(=O)C1CCCN(CC(N)=O)C1", "stereo": "stereo unspecified", "A": 20.47, "B": 30.08}
{"structure": "CC(C)N1CCC(C(=O)N(C)CC(=O)c2ccc(O)cc2)CC1", "A": 11.43, "B": "2.824 and -6.131"}
{"structure": "CC(=O)N[C@H]1CN(S(=O)(=O)N(C)Cc2ccccc2)C[C@@H]1C1CC1", "A": 0.3431, "B": 26.44}
{"structure": "NC(=O)c1ccccc1Oc1cccc(C2CCCNC2)n1", "stereo": "stereo unspecified", "A": 20.29, "B": 36.96}
{"structure": "Cc1ccc(CCC(=O)N2CCOCC2c2ncon2)c(C)c1", "stereo": "stereo unspecified", "A": -16.97, "B": "-20.7 and -2.633"}
{"structure": "CCOC(C)c1noc(CN2CCNCC2)n1", "stereo": "stereo unspecified", "A": 5.44, "B": -1.104}
{"structure": "O=C(Cn1ccc2ccccc21)N1CCC(Oc2cnccn2)CC1", "A": 9.682, "B": "14.86 and 10.62"}
{"structure": "CN(CCc1ccccn1)C(=O)CCC1CCCN(S(C)(=O)=O)C1", "stereo": "stereo unspecified", "A": -13.98, "B": 2.45}
{"structure": "CCCOC1CCCN(Cc2nc(-c3cccs3)oc2C)C1", "stereo": "stereo unspecified", "A": -8.423, "B": 26.47}
{"structure": "O=C(c1ccc(=O)[nH]n1)N(CCO)Cc1cc(Br)ccc1F", "A": -20.25, "B": "-20.06 and 3.804"}
{"structure": "O=C(O)C(F)(F)F.O=C(c1ccccc1)N1CCC2(CCCN2c2ncccn2)CC1", "A": 32.63, "B": 32.63}
{"structure": "[H][C@]12CC[C@]([H])(CN(c3ncccn3)C1)N(C(=O)c1ccc[nH]1)C2", "A": -24.03, "B": 0.9295}
{"structure": "Cc1nccn1-c1cc(CNC(=O)NCC2CCCO2)ccn1", "stereo": "stereo unspecified", "A": -13.27, "B": 0.2803}
{"structure": "CCc1nnc2n1CCN(C(=O)CCOc1ccc(C)cc1C)C2", "A": -3.073, "B": -2.624}
{"structure": "Cc1ccc(CN2CCC3(CCC3NC(=O)c3ccn(C)c3)CC2)s1.O=C(O)C(F)(F)F", "stereo": "stereo unspecified", "A": 5.604, "B": 12.01}
{"structure": "Cc1ccc(OCCN(C)C2CCOC2=O)cc1", "stereo": "stereo unspecified", "A": -0.995, "B": -4.812}
{"structure": "Cl.Cl.Cn1cc(CN2CCc3c(CNC(=O)C4CC4)cncc3C2)cn1", "A": -20.56, "B": "-2.052 and -24.11"}
{"structure": "Cc1nn(C)c(N(C)C)c1CNCc1cccc(CN(C)C)c1.Cl", "A": -4.947, "B": "12.43 and -0.1669"}
{"structure": "Cc1nc2cc(=O)[nH]n2c(C)c1CNC(=O)C(C)Cc1ccccc1", "stereo": "stereo unspecified", "A": 25.25, "B": -8.715}
{"structure": "[H][C@@]12CN(c3ccc(C)nn3)C[C@@H](C(=O)NC3CCC3)[C@]1([H])CCO2", "A": -13.85, "B": -8.398}

Once more, the final 3:

structure	A	B
Cc1nn(C)c(N(C)C)c1CNCc1cccc(CN(C)C)c1.Cl	-4.947%	12.43% and -0.1669%
Cc1nc2cc(=O)[nH]n2c(C)c1CNC(=O)C(C)Cc1ccccc1 (stereo unspecified)	25.25%	-8.715%
[H][C@@]12CN(c3ccc(C)nn3)C[C@@H](C(=O)NC3CCC3)[C@]1([H])CCO2	-13.85%	-8.398%